The source of these data is patent publication US20120277409A1, “METAL-POLYSACCHARIDE CONJUGATES: COMPOSITIONS, SYNTHESIS AND METHODS FOR CANCER THERAPY” (priority 2007, published 2012).

The subject of this series is melanoma. Kind of series: MRI (1.5 T) of melanoma-bearing pig. Type of series: in vivo.
Setting [1] is: 0.13 mmol/kg iv, post-injection.

As for Gd-EDTA-chitosan, where the note is “0.13 mmol/kg iv, 5, 30 and 60 min”, the “percentage (%) of tumor enhancement compared to precontrast signal intensity” value was 16.3-30.5%. Also, where the note is “0.13 mmol/kg iv, 5, 30 and 60 min post-injection”, the “tumor imaging (in words)” value is reported as “the tumor could be imaged”. Also, under setting [1], the “time of maximal tumor signal intensity” value came out at 30 min and the “time of optimal tumor enhancement” value stood at 30 min.
